The campaign covered roughly 360,000 compounds. About 7,500 (2.1%) were called active. Inconclusive results, whose numbers are uncertain, are shown with a selection of clear calls. The call rests on the fitted dose curve; in most records, active means well fitted inhibition curve with a large enough effect; inconclusive means small, poorly fitted or top-dose-only effect, or effect the other way; inactive means flat fitted curve, though single readings scatter. A potency beside an inconclusive call is a rough fit, not a confirmed value.
Experiment: Nrf2 qHTS screen for inhibitors; further: nearly all actives have a fitted effect of over 60% in size
Conditions: A549 ARE-Fluc reporter, luciferase luminescence, 18-24 h; activity change, negative = inhibition: at 46 µM (top of the series)
In short: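 Quantitative HTS in A549 cells stably bearing an antioxidant response element-firefly luciferase construct. Inhibition of Nrf2-driven transcription was scored by luminescence after 18-24 h of compound exposure at 37 °C.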
On the % scale 0 is the no-effect control and ±100 the full control effect; potency means the concentration at half of the fitted maximal effect.

| Structure (SMILES) | Potency | activity change, negative = inhibition |
| --- | --- | --- |
| O=C(Nc1ccc(Cl)cc1)c1nc[nH]c1C(=O)NCc1ccccc1 | inconclusive: 16.4 µM [falling, single point] |  |
| COc1cccc(OCc2cc(C(=O)NCc3ccccn3)no2)c1 | inconclusive: 1.84 µM [activator, full curve] |  |
| N=c1n(N)c2ccccc2n1CC(=O)c1ccc(Br)cc1 | inconclusive: 18.4 µM [activator, single point] |  |
| CCOC(=O)c1c(-c2ccc(OC)c(OC)c2)csc1NC(=O)C1CCCO1 (stereo unspecified) | inconclusive: 20.6 µM [falling, single point] |  |
| CN(C)/C=N/c1nc2ccc3c(c2s1)CCCC3 | inconclusive: 4.11 µM [activator, full curve] |  |
| Cc1ccc(NC(=O)CCC(=O)NNC(=O)NC23CC4CC(CC(C4)C2)C3)cc1C | inconclusive: 18.4 µM [activator, single point] |  |
| Cc1ccccc1NC(=O)CN1C(=O)NC(C)(c2ccc3c(c2)OCO3)C1=O (stereo unspecified) |  | inactive: -22.2% |
| COc1cc(C2Nc3c(F)cccc3C3C=CCC32)cc(Br)c1OC (stereo unspecified) | inconclusive: 7.31 µM [activator, full curve, poor fit] |  |
| COc1ccc(-c2csc(NC(=O)CN3C(=O)NC4(CCCC4)C3=O)n2)c(OC)c1 | inconclusive: 29.1 µM [falling, partial curve, poor fit] |  |
| Fc1ccc(OCc2nc(-c3ccc(Br)o3)no2)c(F)c1 | inconclusive: 25.9 µM [activator, single point] |  |
| O=C(c1cnc2n(c1=O)CCS2)N1CCN(c2ccc(Cl)c(Cl)c2)CC1 | inconclusive: 29.1 µM [falling, single point] |  |
| COc1ccccc1/C=N\Nc1ccccc1[N+](=O)[O-] | inconclusive: 8.2 µM [activator, partial curve] |  |
| COc1cccc(O)c1CN1CCC(C(=O)Nc2ccc(Oc3cccnc3)cc2)CC1 |  | inactive: 3.35% |
| COc1ccc(Nc2nc(Nc3ccc(OC)cc3)nc(-n3[nH]c(=O)c(C)c3C)n2)cc1 | inconclusive: 18.4 µM [falling, single point] |  |
| Cc1c(C)n(Cc2ccccc2)c2ccc(C(=O)NCc3ccc(OC(C)C)cc3)cc12 | inconclusive: 32.6 µM [falling, single point] |  |
| O=C(O)c1ccc(Nc2cnc3ccccc3n2)cc1 | inconclusive: 29.1 µM [activator, single point] |  |
| CCOC(=O)c1sc(NC(=O)C(C)Sc2nc(-c3ccccc3)cc(C(F)(F)F)n2)c(C(=O)OC)c1C (stereo unspecified) |  | inactive: 1.25% |
| CCOC(=O)C1(Cc2ccccc2C(F)(F)F)CCN(CCCn2cccn2)CC1 |  | inactive: 5.05% |
| CC(C)c1ccc(C2(C)NC(=O)N(CC(=O)N3CCN(C(=O)c4cccs4)CC3)C2=O)cc1 (stereo unspecified) | inconclusive: 25.9 µM [falling, partial curve, poor fit] |  |
| C/C=C/c1ccc(OCC(=O)OCC2=C(C(=O)OCC)C(C)NC(=O)N2)c(OC)c1 (stereo unspecified) | inconclusive: 8.2 µM [falling, full curve, poor fit] |  |
| CCOc1cc(N2CCOCC2)c(OCC)cc1NC(=O)COC(=O)[C@H](Cc1c[nH]c2ccccc12)NC(C)=O |  | inactive: -12.5% |

| Structure (SMILES) | Potency | activity change, negative = inhibition |
| --- | --- | --- |
| C/C(N)=C(/C#N)C(=O)CSc1nc(-c2ccccc2)c(-c2ccccc2)o1 | inconclusive: 29.1 µM [falling, partial curve, poor fit] |  |
| Cc1cccc(N2CCN(c3ccc4cc(S(=O)(=O)N5CCCCC5)ccc4n3)CC2C)c1 (stereo unspecified) | inconclusive: 14.6 µM [falling, partial curve, poor fit] |  |
| O=C(CS(=O)(=O)c1c[nH]c2ccccc12)Nc1ccc2c(c1)OCCO2 | inconclusive: 18.4 µM [activator, single point] |  |
| CCN(CC)C(=O)CCCOc1ccc(Cl)cc1Cl | inconclusive: 4.11 µM [activator, single point] |  |
| CCN(CC)c1ccc(/C=N/OC(C)C(=O)Nc2ccc(C)cc2)cc1 (stereo unspecified) | inconclusive: 20.6 µM [falling, partial curve, poor fit] |  |
| CCCCN(C)C1=CC2=CC(=C(C#N)C#N)CCC2CC1 (stereo unspecified) |  | inactive: -11.5% |
| O=C(OCC(=O)N1CCCC1)c1ccco1 | inconclusive: 20.6 µM [activator, single point] |  |
| CC(=O)OCC(=O)C1(O)CCC2C3CCC4=CC(=O)CCC4(C)C3(F)C(O)CC21C (stereo unspecified) | active: 0.0366 µM |  |
| CCOC(=O)N1CCC(n2c(SCC(=O)NCCc3ccc(S(N)(=O)=O)cc3)nc3ccccc3c2=O)CC1 |  | inactive: 5.73% |
| CN(CC(=O)Nc1cccc(F)c1)C(=O)COc1ccc2c(c1)CCC2 | inconclusive: 23.1 µM [falling, partial curve, poor fit] |  |
| COc1cccc(-c2nc3cc(C)ccc3o2)c1 | inconclusive: 1.84 µM [activator, full curve] |  |
| OB(O)c1ccc(B(O)O)cc1 | inconclusive: 16.4 µM [activator, partial curve, poor fit] |  |
| Cc1cc(N2CCC(C)CC2)nc2ccc(N3C(=O)CCC3=O)cc12 |  | inactive: -4.82% |
| CCOc1ccc(Oc2ccc(S(=O)(=O)N3CCOCC3)cc2N)cc1 | inconclusive: 9.2 µM [falling, partial curve] |  |
| CC(C)C(=O)Nc1ccc(NC(=S)NC(=O)c2ccccc2F)cc1 | inconclusive: 29.1 µM [falling, partial curve, poor fit] |  |
| CCN(CC)c1ccc(NC(=O)c2ccc(Br)o2)cc1 | inconclusive: 0.164 µM [activator, full curve, poor fit] |  |
| O=C(Oc1ccccc1Cl)c1cc(-c2ccc3c(c2)OCCO3)on1 | inconclusive: 29.1 µM [falling, single point] |  |
| Cc1ccc(-c2cc(-c3ccccc3Cl)[nH]n2)c(O)c1 | inconclusive: 16.4 µM [activator, single point] |  |
| O=C(Nc1nnc(S(=O)(=O)N2CCCCC2)s1)c1ccc(F)cc1 | inconclusive: 2.31 µM [activator, partial curve, poor fit] |  |
| CCCC(=O)Nc1ccc2c(c1)c1ccccc1n2CC | inconclusive: 10.3 µM [falling, partial curve] |  |

Some of these compounds in order of length of the SMILES, smallest number first:

| Structure (SMILES) | Potency | activity change, negative = inhibition |
| --- | --- | --- |
| O=C(OCC(=O)N1CCCC1)c1ccco1 | inconclusive: 20.6 µM [activator, single point] |  |
| COc1cccc(-c2nc3cc(C)ccc3o2)c1 | inconclusive: 1.84 µM [activator, full curve] |  |
| CCCC(=O)Nc1ccc2c(c1)c1ccccc1n2CC | inconclusive: 10.3 µM [falling, partial curve] |  |
| CCCCN(C)C1=CC2=CC(=C(C#N)C#N)CCC2CC1 (stereo unspecified) |  | inactive: -11.5% |
| CC(C)C(=O)Nc1ccc(NC(=S)NC(=O)c2ccccc2F)cc1 | inconclusive: 29.1 µM [falling, partial curve, poor fit] |  |
| Cc1cc(N2CCC(C)CC2)nc2ccc(N3C(=O)CCC3=O)cc12 |  | inactive: -4.82% |
| CCN(CC)c1ccc(/C=N/OC(C)C(=O)Nc2ccc(C)cc2)cc1 (stereo unspecified) | inconclusive: 20.6 µM [falling, partial curve, poor fit] |  |
| Cc1cccc(N2CCN(c3ccc4cc(S(=O)(=O)N5CCCCC5)ccc4n3)CC2C)c1 (stereo unspecified) | inconclusive: 14.6 µM [falling, partial curve, poor fit] |  |
| CCOC(=O)N1CCC(n2c(SCC(=O)NCCc3ccc(S(N)(=O)=O)cc3)nc3ccccc3c2=O)CC1 |  | inactive: 5.73% |

Source: PubChem BioAssay AID504444 (National Center for Advancing Translational Sciences (NCATS), 2011)
